{
  "source": "patent EP4516912A1",
  "about": "“HERBICIDE RESISTANT PLANTS” (Eberhard-Karls-Universität Tübingen, priority 2023, dated 2025)",
  "key": {"mAtDHQS1": {"biological_target": "T1, mAtDHQS1 (Arabidopsis thaliana, UniProt Q8VYV7)", "T1 construct": "The mature i.e. biologically relevant enzyme (mAtDHQS1) with 381 amino acids; (His)6 (C); made in house; host or cells: E. coli", "T1 sequence (Q8VYV7 59-442)": "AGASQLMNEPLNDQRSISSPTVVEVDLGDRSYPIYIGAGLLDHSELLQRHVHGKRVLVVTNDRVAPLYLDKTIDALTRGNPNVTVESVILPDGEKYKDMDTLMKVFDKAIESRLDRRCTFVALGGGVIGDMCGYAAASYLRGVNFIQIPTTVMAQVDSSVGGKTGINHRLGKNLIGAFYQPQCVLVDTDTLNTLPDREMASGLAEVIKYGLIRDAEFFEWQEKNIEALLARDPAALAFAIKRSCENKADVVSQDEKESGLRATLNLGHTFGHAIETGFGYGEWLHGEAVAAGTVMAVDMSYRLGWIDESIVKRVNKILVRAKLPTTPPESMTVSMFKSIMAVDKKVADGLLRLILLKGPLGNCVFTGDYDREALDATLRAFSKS", "assay": "enzymatic assay with purified recombinant mature AtDHQS1", "format": "biochemical", "details": "substrate DAHP", "description": "(§1) (A) Schematic representation of mDHSQ1 and pDHQS1 both containing a C-terminal (His)6 tag for purification after heterologous expression of the recombinant proteins in E.coli. aa: amino acid. (B) Relative activity of mDHQS1 (left) and pDHQS1 (right) in the presence of the indicated concentrations of 7dSh. The activity in the absence of 7dSh was set to 1. […] (A) MST fluorescence spectrum of RED dye-labelled mAtDHQS1 (50 nM) in the absence of DAHP (blue line, marked as line 1) or in the presence of 500 µM DAHP (green line, marked as line 2). […] (B) MST fluorescence spectrum of RED dye-labelled mAtDHQS1 (50 nM) in the absence of 7dSh (blue line marked as line 1) or in the presence of 500 µM 7dSh (green line marked as line 2). […] (C) MST fluorescence spectrum of RED dye-labelled mAtDHQS1 (50 nM) in the absence of 7dSh and DAHP (blue line, marked as line 1), in the presence of 250 µM DAHP (green line marked as line 2) or 250 µM DAHP and 250 µM 7dSh (red line marked as line 3). […] (B) As in (A) but the root length was quantified. n = 10 different, lower case letters mean statistically significant differences between the data sets (ANOVA test). (C) Subcellular localization of EGFP-tagged AtDHQS1 (lines 1-1 and 1-2) or EGFP-tagged AtDHQS2 (lines 2-1 and 2-2) in chloroplasts (red fluorescence) of 3-days-old transgenic Arabidopsis plants. […]"}, "pAtDHQS1": {"biological_target": "T2, pAtDHQS1 (Arabidopsis thaliana, UniProt Q8VYV7)", "T2 construct": "a version that still has the 61 amino acid long transit peptide for plastid import (pAtDHQS1); (His)6 (C); made in house; host or cells: E. coli", "T2 sequence (Q8VYV7 59-442)": "T1 sequence (Q8VYV7 59-442)", "assay": "enzymatic assay with purified recombinant AtDHQS1 still containing the transit peptide", "format": "biochemical", "details": "substrate DAHP", "description": "as §1"}},
  "note": "At least one structure is not confirmed: it was looked up by name or label, or the drawing left a doubt.",
  "data": [
    {"smiles": "O=C(O)C(=O)C[C@@H](O)[C@H](O)[C@H](O)COP(=O)(O)O", "note": "[DAHP, 3-deoxy-D-arabino-heptulosonate-7-phosphate, reference compound]", "values": [
      {"measurement": "Vmax", "setting": "mAtDHQS1", "result": "3.4 nmol DAHP min-1 and µg protein-1"},
      {"measurement": "Vmax", "setting": "pAtDHQS1", "result": "1.5 nmol DAHP min-1 and µg protein-1"}
    ]}
  ]
}
